# Test results from the supplement of paper PMC10735217.
# Structures can show the parent of a compound that is named as a salt. This is one part of the list. Single values are uncertain here, since repeats match poorly.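 In a drug-repurposing library screen, luminescence reads luciferase driven by eight TEAD-binding elements, stably integrated into human kidney-derived cells. Compounds scoring over five robust Z scores above the plate mean are called hits.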
# System: HEK293A TEAD-LUC reporter
# Assay: TEAD-luciferase reporter activity (YAP activation), robust Z score vs plate; higher = stronger YAP/TEAD activation
# Conditions: 24 h
SMILES,TEAD-luciferase reporter activity (compound concentration: 200 nM),TEAD-luciferase reporter activity (compound concentration: 2 uM),TEAD-luciferase reporter activity (compound concentration: 10 uM)
OC[C@H]1O[C@@H](n2cnc3c(NCC(c4ccccc4)c4ccccc4)ncnc32)[C@H](O)[C@@H]1O,inactive: 0.918,inactive: 0.138,inactive: 3.59
C[C@@H]1COC(Nc2ccc3ncnc(Nc4ccc(OCc5nccs5)c(Cl)c4)c3c2)=N1 [varlitinib],inactive: -1.42,inactive: 3.68,inactive: -0.384
O=C(O)Cc1ccc(COc2cccc(-c3c(Cc4ccccc4)cnc4c(C(F)(F)F)cccc34)c2)cc1,inactive: 0.0339,inactive: -0.215,inactive: -0.792
OCC(CO)n1cnc(-c2ccc(F)cc2)c1-c1ccnc(Oc2ccccc2)n1,inactive: -0.839,inactive: -1.24,inactive: -1.55
Nc1nc(N)c2ncn(C3COC(CO)O3)c2n1 (stereo not given) [Amdoxovir],inactive: -1.03,inactive: -0.879,inactive: 1.51
CC1=C(CC(=O)O)c2cc(F)ccc2/C1=C/c1ccc(S(C)=O)cc1 (stereo not given),inactive: -0.2,inactive: 0.0963,inactive: -0.265
Cn1c(C#N)ccc1-c1cc(F)c2c(c1)C(C)(C)C(=O)N2,inactive: -0.105,inactive: 0.641,inactive: -0.441
CC(C)N(CCO/N=C1\CCCCC\C1=C\c1ccccc1)C(C)C [stirocainide],inactive: 0.384,inactive: 0.447,inactive: 2.3
COc1ccc([C@]2(C#N)CC[C@@H](C(=O)O)CC2)cc1OC1CCCC1 [cilomilast],inactive: -2.11,inactive: -0.815,inactive: -0.872
O=C(O)c1cccnc1Nc1cccc(C(F)(F)F)c1,inactive: -1.07,inactive: -1.41,inactive: 1.27
CC(C)C(NC(=O)Cn1c(-c2ccccc2)ncc(N)c1=O)C(=O)c1nnc(C(C)(C)C)o1 (stereo not given) [Freselestat],inactive: -0.367,inactive: -0.262,inactive: -1.06
Cc1cc(C)cc(NC(=O)Cc2ccc(OC(C)(C)C(=O)[O-])cc2)c1 [Efaproxiral (sodium)],inactive: -1.64,inactive: -1.08,inactive: 0.14
CCC[C@H](NC(=O)[C@@H]1C[C@@H](Oc2cc(-n3cccn3)nc3cc(OC)ccc23)CN1C(=O)[C@@H](NC(=O)NC(C)(C)C)C(C)(C)C)C(=O)C(=O)NC1CC1,inactive: 0.206,inactive: -0.0827,inactive: 1.1
COc1ccc(C(=O)N2CCC3(CC2)Cc2ccccc2NC3=O)cc1,inactive: -1.02,,inactive: 1.83
CC(C)C[C@H](NC(=O)[C@H](CC(N)=O)NC(=O)[C@H](CCC(=O)O)NC(=O)CNC(=O)[C@@H]1CCCN1C(=O)[C@H](CCC(N)=O)NC(=O)[C@H](Cc1ccc(O)cc1)NC(=O)[C@H](CCC(N)=O)NC(=O)[C@@H]1CCCN1C(=O)[C@H](CCC(=O)O)NC(=O)[C@@H](NC(=O)[C@H](CO)NC(=O)[C@@H](N)[C@@H](C)O)[C@@H](C)O)C(=O)O [Tsumura-zokumeito],inactive: 0.282,inactive: -0.395,inactive: -0.636
CNC1(C)C2CCC(C2)C1(C)C (stereo not given) [mecamylamine HCl],,inactive: 0.546,

SMILES,TEAD-luciferase reporter activity (compound concentration: 200 nM),TEAD-luciferase reporter activity (compound concentration: 2 uM),TEAD-luciferase reporter activity (compound concentration: 10 uM)
CNC1(C)C2CCC(C2)C1(C)C (stereo not given),inactive: -0.601,,inactive: 0.503
C=CC[N+]1([C@H]2C[C@H]3[C@@H]4CC[C@H]5C[C@H](OC(C)=O)[C@@H](N6CCC7(CC6)OCCO7)C[C@]5(C)[C@H]4CC[C@]3(C)[C@H]2OC(C)=O)CCCC1,inactive: -1.3,inactive: -0.621,inactive: -0.54
CC(C)OC(=O)c1cn(Cc2c(F)cccc2F)c2sc(-c3ccc(NC(=O)C(C)C)cc3)c(CN(C)Cc3ccccc3)c2c1=O,inactive: -0.716,inactive: -0.372,inactive: 4.85
CC[C@@H]1C(=O)N(C)c2cnc(Nc3ccc(C(=O)N[C@H]4CC[C@H](N5CCN(CC6CC6)CC5)CC4)cc3OC)nc2N1C(C)C [Volasertib],inactive: -1.26,active: 6.14,inactive: 0.942
Nc1ncn(C2C[C@H](O)[C@@H](CO)O2)c(=O)n1 (stereo not given in full) [Decitabine],inactive: 1.79,inactive: 0.412,active: 7.38
Fc1ccccc1-c1nc2ccn(Cc3ccc(-c4ccc(C(F)(F)F)cc4C(F)(F)F)nn3)cc-2n1 [tegobuvir],inactive: -2.7,inactive: 0.151,inactive: -0.135
Nc1nc(N)nc(-c2cc(Cl)ccc2Cl)n1,inactive: -1.51,,inactive: 0.715
Nc1nc(N)nc(-c2cc(Cl)ccc2Cl)n1 [irsogladine],,inactive: -2.46,
CC(C)n1c(=O)cc(N[C@@H](C)c2ccccc2)[nH]c1=O [Mavacamten],inactive: -1.17,inactive: 0.991,inactive: 0.117
Cc1ccc2c(nc(C)n2CCCCC2(C(=O)NCC(F)(F)F)c3ccccc3-c3ccccc32)c1NC(=O)c1ccccc1-c1ccc(C(F)(F)F)cc1,inactive: -1.36,inactive: -1.55,inactive: 1.42
COc1cc(C[C@@H](CO)[C@H](CO)Cc2ccc(O)c(OC)c2)ccc1O [(-)-Secoisolariciresinol],,inactive: 0.0193,
COc1cc(C[C@@H](CO)[C@H](CO)Cc2ccc(O)c(OC)c2)ccc1O,inactive: -0.226,,inactive: -1.53
CCC(=O)N1CCN(c2cc3c(cc2F)c(=O)c(C(=O)O)cn3CC)CC1,inactive: -1.21,inactive: -1.1,inactive: 4.73
O=C(C1CCN(c2nc3ncccc3o2)CC1)N1CCN(c2ncccn2)CC1,inactive: 0.1,,inactive: -0.693
COC(=O)[C@@H]1CC(=O)C[C@H]1C(=O)OC,inactive: 0.0953,inactive: 0.497,inactive: 0.941
CCCCC(=O)N(Cc1ccc(-c2ccccc2-c2nnn[nH]2)cc1)[C@H](C(=O)O)C(C)C.CCOC(=O)[C@H](C)C[C@@H](Cc1ccc(-c2ccccc2)cc1)NC(=O)CCC(=O)O,inactive: -1.18,inactive: -1.92,inactive: -0.295

# Rewritten bar-delimited: part of the list above
SMILES | TEAD-luciferase reporter activity (compound concentration: 200 nM) | TEAD-luciferase reporter activity (compound concentration: 2 uM) | TEAD-luciferase reporter activity (compound concentration: 10 uM)
CC[C@@H]1C(=O)N(C)c2cnc(Nc3ccc(C(=O)N[C@H]4CC[C@H](N5CCN(CC6CC6)CC5)CC4)cc3OC)nc2N1C(C)C [Volasertib] | inactive: -1.26 | active: 6.14 | inactive: 0.942
Cc1ccc2c(nc(C)n2CCCCC2(C(=O)NCC(F)(F)F)c3ccccc3-c3ccccc32)c1NC(=O)c1ccccc1-c1ccc(C(F)(F)F)cc1 | inactive: -1.36 | inactive: -1.55 | inactive: 1.42
COC(=O)[C@@H]1CC(=O)C[C@H]1C(=O)OC | inactive: 0.0953 | inactive: 0.497 | inactive: 0.941
